Laboratory results taken from PubChem BioAssay AID1259354 (Paczesny and Yang Labs, IUPUI and University of Michigan, 2018).
Hit rate of the full screen: of about 78,000 compounds, about 1,800 (2.3%) were called active. This list was built around the results that the source calls inconclusive (neither active nor inactive); the mix of calls is not that of the screen. Cut-off read from the data, not from the text of the source: active = inhibition above about 30%; inconclusive = mostly about 10% to 28%; inactive = weaker than that.

Amino acid sequences for entries named in this document (tags omitted). A change or cut given only in a name is not applied to a line headed by its entry.
UniProt Q01638: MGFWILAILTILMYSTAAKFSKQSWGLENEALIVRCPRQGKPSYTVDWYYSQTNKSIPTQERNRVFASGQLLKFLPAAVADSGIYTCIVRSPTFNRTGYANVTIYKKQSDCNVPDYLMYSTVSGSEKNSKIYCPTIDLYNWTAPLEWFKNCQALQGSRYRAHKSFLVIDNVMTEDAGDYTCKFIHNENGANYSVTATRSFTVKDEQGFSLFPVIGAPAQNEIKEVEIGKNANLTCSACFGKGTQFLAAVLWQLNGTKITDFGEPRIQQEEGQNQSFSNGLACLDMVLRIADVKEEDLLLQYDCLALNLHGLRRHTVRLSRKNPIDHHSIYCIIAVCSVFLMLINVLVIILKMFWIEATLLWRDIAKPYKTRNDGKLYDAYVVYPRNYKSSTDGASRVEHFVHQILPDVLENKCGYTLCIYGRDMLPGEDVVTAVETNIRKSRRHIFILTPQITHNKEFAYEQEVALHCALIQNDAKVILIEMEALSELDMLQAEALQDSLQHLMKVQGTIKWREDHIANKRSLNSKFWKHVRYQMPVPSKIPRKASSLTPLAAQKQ

Each molecule was assayed against Interleukin-1 receptor-like 1 (Homo sapiens) (UniProt Q01638) (assay: blocks human ST2 binding to IL-33, primary screen, biochemical, AlphaLISA (AID 1259354)). Details: AlphaLISA ST2-Fc/biotin-IL-33 interaction, 1 h; at 17 µM, stronger effect = higher value.
In the case of `Cc1cc2c(cc1C)C(c1ccccc1C)CC(=O)N2` (centres undefined), the inhibition is reported as inconclusive: 22%.
In the case of `Cc1cccn2c(=O)c3cc(C(=O)NC4CCCC4)n(C)c3nc12`, the inhibition is reported as inconclusive: 12%.
With `CC(C)(C)n1cnc2cc(NCc3ccccc3Cl)ccc21` the inhibition was inconclusive: 13%.
For `NS(=O)(=O)c1ccc(NC(=O)c2ccccc2[N+](=O)[O-])cc1`, the inhibition was active: 32%.
`Cc1cc(C)c(CN2CCOC(CN)C2)c(-n2cccn2)c1` (centres undefined) was tested, and the inhibition was “inactive”.
`CCc1cc(CNC(=O)c2ccc(OC3CCN(C(C)=O)CC3)c(OC)c2)on1` was tested, and the inhibition was inconclusive: 11%.
In the case of `COc1ccc(CNC(=O)CC[C@H]2CNC(=O)[C@@H]3[C@@H](CCN3Cc3ccc(C)cc3)N2C)cc1`, the inhibition is reported as inconclusive: 15%.
With `CCOc1ccc(C(=O)Nc2ccc3oc(-c4ccncc4)nc3c2)cc1[N+](=O)[O-]` the inhibition was “inactive”.
With `O=C1N/C(=C/c2ccc(-c3ccccc3[N+](=O)[O-])o2)C(=O)N1Cc1ccc(Cl)cc1` the inhibition was inconclusive: 14%.
For `COc1ccc(N2CCSC2C(=O)c2ccccc2)cc1` (centres undefined), the inhibition was active: 32%.
In the case of `COc1cc(C)c(CNCc2cccnc2N2CCN(C(C)=O)CC2)cc1C`, the inhibition is reported as “inactive”.
In the case of `COc1ccc(/C=C2/SC(=O)N(CC(=O)Nc3cc(C)on3)C2=O)cc1OC`, the inhibition is reported as active: 35%.
`O=C1S/C(=C/c2cccc(F)c2)C(=O)N1CNc1ccccc1` was tested, and the inhibition was inconclusive: 29%.
For `O=C1[C@@H]2[C@H](C(=O)N1c1ccncc1)[C@H]1C=C[C@@H]2C12CC2`, the inhibition was inconclusive: 20%.
In the case of `O=C(c1ccco1)N1CCCN(Cc2cc(C#CCO)cs2)CC1`, the inhibition is reported as inconclusive: 10%.
With `Cc1cccc(Cc2c(C)[nH]c(=O)c(C#N)c2C)c1` the inhibition was inconclusive: 18%.
In the case of `CCOC(=O)c1cnc(NC(=O)N2C3CCCCC2CCC3)[nH]1`, the inhibition is reported as “inactive”.
For `CC(C)CCNC(=O)NCCc1nc2cccnc2n1C1CCCCC1`, the inhibition was “inactive”.
For `N#Cc1cc([N+](=O)[O-])cnc1Sc1ccccc1`, the inhibition was active: 32%.
For `COc1cc(C(=O)N(C)Cc2snnc2C)nc(OC)n1`, the inhibition was inconclusive: 16%.
With `O=C(NC1CCCCC1)c1ccc2c(c1)ncn2C1CCCCCC1` the inhibition was “inactive”.
For `COc1ccc(C(=O)N=C2C=C(C)C(=O)C=C2C)cc1OC`, the inhibition was inconclusive: 22%.
With `O=C(c1cccc(N2CCNC2=O)c1)N1CCOC2(CNCCOC2)C1` (centres undefined) the inhibition was inconclusive: 12%.
`CC1C(=O)N(C)CCN1Cc1cccc(OCc2ccccn2)c1` (centres undefined) was tested, and the inhibition was “inactive”.
For `COC(=O)c1ccc(-c2noc(C[C@@H]3O[C@H](CNC(=O)NC(C)C)[C@@H](O)[C@H]3O)n2)cc1`, the inhibition was “inactive”.
For `O=C(O)CCC(=O)NCc1ccccc1`, the inhibition was “inactive”.
In the case of `O=S(=O)(NC[C@H]1O[C@@H](CO)[C@@H](O)[C@H]1N1CCN(c2ccccc2)CC1)c1ccc(F)cc1`, the inhibition is reported as inconclusive: 17%.
In the case of `Cc1ccc(N=C2NC(=O)C(Cc3ccccc3)S2)cc1` (centres undefined), the inhibition is reported as “inactive”.
With `CCOC(=O)C1(CCCc2ccccc2)CCN(C(=O)c2cc(CC(C)C)nc(C)n2)CC1` the inhibition was “inactive”.
With `C=CCN(Cc1ccccn1)C(=O)CC(=O)Nc1cc(C)ccc1C` the inhibition was inconclusive: 15%.
With `O=C(c1cccc2c1NCCC2)N1CC[C@@H](c2ccc3c(c2)OCO3)[C@H](O)C1` the inhibition was inconclusive: 15%.
For `COc1ccccc1/C=C/C1=NC(=C\c2cccc(F)c2)/C(=O)O1`, the inhibition was inconclusive: 28%.
For `O=C(NC[C@H]1O[C@@H](CC(=O)N2CCCC2)[C@H](O)[C@@H]1O)Nc1cccc(F)c1`, the inhibition was inconclusive: 14%.
In the case of `CCOc1ccc(Cn2c(CNS(=O)(=O)c3ccc(F)c(Cl)c3)nc3cccnc32)cc1`, the inhibition is reported as inconclusive: 17%.
`CN(C)Cc1c(O)ccc2c(=O)c(-c3ccccc3)coc12` was tested, and the inhibition was “inactive”.
For `O=C(Nc1nc(-c2ccc(Cl)c(Cl)c2)cs1)c1cc(=O)c2ccccc2o1`, the inhibition was inconclusive: 12%.
In the case of `O=[N+]([O-])c1cc(C(F)(F)F)ccc1NCCN=Cc1cc(Cl)ccc1O`, the inhibition is reported as “inactive”.
For `O=C(c1c(F)cccc1F)N1CCN=C1SCc1ccccc1F`, the inhibition was inconclusive: 10%.
For `COc1cc(OC)cc(-n2c(=O)c3sccc3n(CC(=O)N(C)C3CCCCC3)c2=O)c1`, the inhibition was “inactive”.
`COc1cccc(CN(C)Cc2ccsc2)c1F` was tested, and the inhibition was inconclusive: 22%.
`O=C(Nc1ccc(-c2nc3ccccc3o2)cc1)c1cccc(Br)c1` was tested, and the inhibition was “inactive”.
For `COc1cccc(NC(=O)CCCc2ccccc2)c1`, the inhibition was “inactive”.
For `Cc1[nH]c2c(F)cccc2c1CC(=O)NCCSc1nnnn1C`, the inhibition was inconclusive: 23%.
With `CCN(CC)S(=O)(=O)c1ccc(C(=O)N=c2sc3cc(C)ccc3n2C)cc1` the inhibition was inconclusive: 17%.
In the case of `Cc1ccc(-c2noc(CCC(=O)N(C)c3ccc(Br)cc3)n2)cc1`, the inhibition is reported as “inactive”.
In the case of `COc1ccccc1CN1CCc2c([nH]c3ccccc23)C1`, the inhibition is reported as inconclusive: 11%.
In the case of `O=C(Nc1cccc(-c2ccco2)c1)C1CCN(C(=O)c2ncoc2C2CC2)CC1`, the inhibition is reported as “inactive”.
In the case of `O=S(=O)(c1ccc(-c2csc(=Nc3ccccc3)n2CCCO)cc1)N1CCOCC1`, the inhibition is reported as active: 39%.
With `Cc1nn(C)cc1C(C)n1ccnc1-c1ccccc1Cn1cccn1` (centres undefined) the inhibition was inconclusive: 14%.
In the case of `O=C1CCCC2=C1C(c1cccc(OCc3ccc(C(=O)O)cc3)c1)C1=C(CCCC1=O)O2`, the inhibition is reported as “inactive”.
With `CS(=O)(=O)N(CC(=O)Nc1ccc(Br)cc1)c1ccccc1Br` the inhibition was inconclusive: 14%.
In the case of `Cc1nn(-c2ccccn2)c(C)c1[C@@H]1C=C[C@@H](NC(=O)CC(C)(C)CC(=O)O)C1`, the inhibition is reported as inconclusive: 16%.
For `COc1ccc(C(=O)NC[C@@H]2C=C(C)[C@H](CC(=O)NCCN(C)C)C[C@H]2C(C)C)cc1`, the inhibition was inconclusive: 15%.
`O=C(CSc1nnc(COc2ccccc2)n1-c1ccccc1)c1cccc([N+](=O)[O-])c1` was tested, and the inhibition was inconclusive: 20%.
With `O=C1CCCC2=C1C(c1ccncc1)Nc1ccc(C(=O)c3ccccc3)cc1N2` (centres undefined) the inhibition was inconclusive: 20%.
For `C=CCn1cc(C(=O)NC2CCCCC2)c(=O)c2cc(S(=O)(=O)N(CC)CC)ccc21`, the inhibition was “inactive”.
For `CCN(C(=O)c1csc(SC)n1)C(C)CO` (centres undefined), the inhibition was inconclusive: 15%.
`CN(Cc1cc(-c2cccs2)n[nH]1)C(=O)C1=NNC(=O)CC1` was tested, and the inhibition was inconclusive: 14%.
With `Cc1cccc(CN2CCN(C(=O)CC3=CCNCC3)C(C)C2=O)c1` (centres undefined) the inhibition was inconclusive: 15%.
`O=[N+]([O-])c1ccccc1C=Nc1ccc(S(=O)(=O)Nc2nccs2)cc1` was tested, and the inhibition was “inactive”.
For `N#CC1=C2SCN(Cc3ccccc3)CN2C(=O)CC1c1c(F)cccc1Cl` (centres undefined), the inhibition was “inactive”.
With `COCCC(=O)N[C@H]1CC[C@]2(C)CC[C@@H]([C@H](C)C(=O)NCc3ccco3)[C@H](O)[C@H]2[C@@H]1C` the inhibition was inconclusive: 14%.
In the case of `O=[N+]([O-])c1cccc(-c2nnc(-c3ccc(Cl)cc3)o2)c1`, the inhibition is reported as inconclusive: 20%.
With `Cc1cccc(OCC(=O)OCCCN=C2NS(=O)(=O)c3ccccc32)c1` the inhibition was inconclusive: 12%.
For `COc1ccccc1N(CC(=O)O)S(C)(=O)=O`, the inhibition was “inactive”.
`Clc1cccc(Nc2nc3nonc3nc2N2CCOCC2)c1` was tested, and the inhibition was inconclusive: 19%.
`Cc1ccc(NC(=O)c2cccs2)nc1` was tested, and the inhibition was inconclusive: 17%.
`O=S(=O)(NCCCc1ccccc1)c1cccc2nsnc12` was tested, and the inhibition was inconclusive: 19%.
For `CC1CCCN(C(=O)c2ccc([N+](=O)[O-])o2)C1` (centres undefined), the inhibition was inconclusive: 12%.
`Cc1cccc(Cc2c(C)nc3nc(SCC(=O)N4CCCC4)nn3c2C)c1` was tested, and the inhibition was “inactive”.
In the case of `O=C(/C=C/c1ccc(O)c(O)c1)OC1[C@H](O)CC(O)(C(=O)O)C[C@H]1O` (some centres undefined), the inhibition is reported as inconclusive: 16%.
`COc1ccc(-c2sc(C)nc2C)c(OC)c1OC` was tested, and the inhibition was “inactive”.
For `CC1CCCCN1S(=O)(=O)c1ccc2c(c1)CCN2C(=O)CCC(=O)N1CCCC1` (centres undefined), the inhibition was inconclusive: 29%.
In the case of `CCC1Oc2ccccc2N(Cc2ccccc2F)C1=O` (centres undefined), the inhibition is reported as inconclusive: 11%.
In the case of `CCOC(=O)C1(CCCc2ccccc2)CCN(C(=O)Cc2csc(C)n2)CC1`, the inhibition is reported as inconclusive: 15%.
For `Cc1c(C(=O)N(Cc2ccncc2)C2CCN(C)CC2)[nH]c2ccc(F)cc12`, the inhibition was inconclusive: 17%.
With `O=C(Nc1ccccc1)N[C@H]1[C@H](O)[C@@H](N2CCC(Cc3ccccc3)CC2)[C@@H]2OC[C@H]1O2` the inhibition was inconclusive: 14%.
For `Cc1c(Cl)c([N+](=O)[O-])nn1CCCC(=O)Nc1cc(Cl)ccc1O`, the inhibition was inconclusive: 11%.
`CC(C)CCNC(=O)CCS(=O)(=O)c1cccc2nonc12` was tested, and the inhibition was active: 60%.
With `Cc1nc(S(=O)(=O)c2ccc(Cl)cc2)c(N2CCOCC2)o1` the inhibition was inconclusive: 10%.
In the case of `Cc1cc(C)c(NC(=O)c2ccco2)c(Cl)c1`, the inhibition is reported as “inactive”.
`COC(=O)C(C)n1cnc2c(cnn2-c2ccccc2)c1=O` (centres undefined) was tested, and the inhibition was “inactive”.
With `COc1ccc(OCC(=O)Nc2cc([N+](=O)[O-])ccc2C)cc1` the inhibition was “inactive”.
With `Cc1cccc(NC(c2ccccc2)c2ccc3ccc(C)nc3c2O)n1` (centres undefined) the inhibition was active: 36%.
For `Cc1ccc(/C=C(\C#N)c2nc(-c3ccc(C)cc3)cs2)cc1`, the inhibition was active: 54%.
For `O=[N+]([O-])c1cccc(C=Nc2cccc3ncccc23)c1O`, the inhibition was “inactive”.
With `O=c1[nH]cccc1-c1ccc2c(c1)OCCO2` the inhibition was inconclusive: 10%.
For `O=C1ON=C2[C@@H]3C[C@@H]4C[C@]12C[C@@]1(C3)C(=O)ON=C41`, the inhibition was inconclusive: 11%.
For `O=C(c1cnn2ccccc12)N1C[C@H]2OC(=O)N(Cc3ccccn3)[C@H]2C1`, the inhibition was “inactive”.
For `CCc1cccc(OCCCCN2CCOCC2)c1`, the inhibition was inconclusive: 16%.
For `COc1ccc(-n2c(=O)[nH]cc(C(=O)Nc3ccc(OC)cc3OC)c2=O)cc1`, the inhibition was “inactive”.
For `Cc1ccc(Nc2cc(C)nc(Nc3ccc(NC(=O)c4cccs4)cc3)n2)cc1`, the inhibition was inconclusive: 13%.
For `Cc1[nH]c(=O)c(C#N)cc1-c1ccncc1`, the inhibition was inconclusive: 19%.
For `Cc1ccc(NC(=O)CC2(C)Nc3ccccc3C(=O)N2c2ccccc2C)c(C)c1` (centres undefined), the inhibition was “inactive”.
